# Some of the results follow.
# Assays:
# Test in all cases: glycan array binding signal (z-score within array); higher = stronger binding
# Conditions in all cases: glycan notation: IUPAC condensed, linker removed
# [1] = molecular target: Gal(b1-3)[Fuc(a1-4)]GlcNAc(b1-6)GalNAc
# In short: (§1)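 Columns mapping to the same glycan were averaged after glycan names were converted to IUPAC-condensed notation. The data come from 3228 arrays in the Consortium for Functional Glycomics database, limited to those with an available protein sequence. Binding is reported as a within-array Z-score averaged across arrays of one protein sequence and across linkers.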
# [2] = molecular target: Gal(b1-3)[GlcNAc(b1-6)]GalNAc
# In short: as §1
# [3] = molecular target: Gal(b1-3)[Neu5Ac(a2-6)]GalNAc
# In short: as §1
# [4] = molecular target: Gal(b1-3)[Neu5Ac(a2-6)]GlcNAc(b1-4)Gal(b1-4)Glc
# In short: as §1
# [5] = molecular target: Gal(b1-3)[Neu5Ac(b2-6)]GalNAc
# In short: as §1
# Gal(b1-4)Gal = molecular target: Gal(b1-4)Gal
# In short: as §1
# [6] = molecular target: Gal(b1-4)GalNAc(a1-3)[Fuc(a1-2)]Gal(b1-4)GlcNAc
# In short: as §1
# [7] = molecular target: Gal(b1-4)GalNAc(b1-3)[Fuc(a1-2)]Gal(b1-4)GlcNAc
# In short: as §1
# Gal(b1-4)Glc = molecular target: Gal(b1-4)Glc
# In short: as §1
# Gal(b1-4)Glc6S = molecular target: Gal(b1-4)Glc6S
# In short: as §1
# Gal(b1-4)GlcNAc = molecular target: Gal(b1-4)GlcNAc
# In short: as §1
# [8] = molecular target: Gal(b1-4)GlcNAc(a1-6)Gal(b1-4)GlcNAc
# In short: as §1
# Gal(b1-4)GlcNAc(b1-2)Man = molecular target: Gal(b1-4)GlcNAc(b1-2)Man
# In short: as §1
# [9] = molecular target: Gal(b1-4)GlcNAc(b1-2)Man(a1-3)Man(b1-4)GlcNAc(b1-4)GlcNAc
# In short: as §1
# [10] = molecular target: Gal(b1-4)GlcNAc(b1-2)Man(a1-3)[Gal(b1-4)GlcNAc(b1-2)Man(a1-6)]Man(b1-4)GlcNAc(b1-4)GlcNAc
# In short: as §1
# [11] = molecular target: Gal(b1-4)GlcNAc(b1-2)Man(a1-3)[Gal(b1-4)GlcNAc(b1-2)Man(a1-6)]Man(b1-4)GlcNAc(b1-4)[Fuc(a1-6)]GlcNAc
# In short: as §1
# [12] = molecular target: Gal(b1-4)GlcNAc(b1-2)Man(a1-3)[Gal(b1-4)GlcNAc(b1-2)Man(a1-6)][Gal(b1-4)GlcNAc(b1-4)]Man(b1-4)GlcNAc(b1-4)[Fuc(a1-6)]GlcNAc
# In short: as §1
# [13] = molecular target: Gal(b1-4)GlcNAc(b1-2)Man(a1-3)[Gal(b1-4)GlcNAc(b1-2)Man(a1-6)][GlcNAc(b1-4)]Man(b1-4)GlcNAc(b1-4)[Fuc(a1-6)]GlcNAc
# In short: as §1
# [14] = molecular target: Gal(b1-4)GlcNAc(b1-2)Man(a1-3)[GlcNAc(b1-2)Man(a1-6)]Man(b1-4)GlcNAc(b1-4)GlcNAc
# In short: as §1
# [15] = molecular target: Gal(b1-4)GlcNAc(b1-2)Man(a1-3)[GlcNAc(b1-4)][Gal(b1-4)GlcNAc(b1-2)Man(a1-6)]Man(b1-4)GlcNAc(b1-4)GlcNAc
# In short: as §1
# [16] = molecular target: Gal(b1-4)GlcNAc(b1-2)Man(a1-3)[Man(a1-6)]Man(b1-4)GlcNAc(b1-4)GlcNAc
# In short: as §1
# [17] = molecular target: Gal(b1-4)GlcNAc(b1-2)Man(a1-6)Man(b1-4)GlcNAc(b1-4)GlcNAc
# In short: as §1
# [18] = molecular target: Gal(b1-4)GlcNAc(b1-2)Man(a1-6)[GlcNAc(b1-2)Man(a1-3)]Man(b1-4)GlcNAc(b1-4)GlcNAc
# In short: as §1
# [19] = molecular target: Gal(b1-4)GlcNAc(b1-2)Man(a1-6)[Man(a1-3)]Man(b1-4)GlcNAc(b1-4)GlcNAc
# In short: as §1
# [20] = molecular target: Gal(b1-4)GlcNAc(b1-2)[Gal(b1-4)GlcNAc(b1-4)]Man(a1-3)[Gal(b1-4)GlcNAc(b1-2)Man(a1-6)]Man(b1-4)GlcNAc(b1-4)GlcNAc
# In short: as §1
# [21] = molecular target: Gal(b1-4)GlcNAc(b1-2)[Gal(b1-4)GlcNAc(b1-4)]Man(a1-3)[Gal(b1-4)GlcNAc(b1-2)[Gal(b1-4)GlcNAc(b1-6)]Man(a1-6)]Man(b1-4)GlcNAc(b1-4)GlcNAc
# In short: as §1
# [22] = molecular target: Gal(b1-4)GlcNAc(b1-2)[Gal(b1-4)GlcNAc(b1-4)]Man(a1-3)[GlcNAc(b1-4)][Gal(b1-4)GlcNAc(b1-2)Man(a1-6)]Man(b1-4)GlcNAc(b1-4)GlcNAc
# In short: as §1
# [23] = molecular target: Gal(b1-4)GlcNAc(b1-2)[Gal(b1-4)GlcNAc(b1-4)]Man(a1-3)[GlcNAc(b1-4)][Gal(b1-4)GlcNAc(b1-2)[Gal(b1-4)GlcNAc(b1-6)]Man(a1-6)]Man(b1-4)GlcNAc(b1-4)GlcNAc
# In short: as §1
# [24] = molecular target: Gal(b1-4)GlcNAc(b1-2)[Gal(b1-4)GlcNAc(b1-6)]Man(a1-6)[Gal(b1-4)GlcNAc(b1-2)Man(a1-3)]Man(b1-4)GlcNAc(b1-4)GlcNAc
# In short: as §1
# [25] = molecular target: Gal(b1-4)GlcNAc(b1-2)[Gal(b1-4)GlcNAc(b1-6)]Man(a1-6)[Gal(b1-4)GlcNAc(b1-2)Man(a1-3)]Man(b1-4)GlcNAc(b1-4)[Fuc(a1-6)]GlcNAc
# In short: as §1
# [26] = molecular target: Gal(b1-4)GlcNAc(b1-2)[Gal(b1-4)GlcNAc(b1-6)]Man(a1-6)[GlcNAc(b1-4)][Gal(b1-4)GlcNAc(b1-2)Man(a1-3)]Man(b1-4)GlcNAc(b1-4)GlcNAc
# In short: as §1
# [27] = molecular target: Gal(b1-4)GlcNAc(b1-2)[Gal(b1-4)GlcNAc(b1-6)]Man(a1-6)[GlcNAc(b1-4)][Gal(b1-4)GlcNAc(b1-2)[Gal(b1-4)GlcNAc(b1-4)]Man(a1-3)]Man(b1-4)GlcNAc(b1-4)[Fuc(a1-6)]GlcNAc
# In short: as §1
# [28] = molecular target: Gal(b1-4)GlcNAc(b1-3)Gal(b1-3)GalNAc
# In short: as §1
# [29] = molecular target: Gal(b1-4)GlcNAc(b1-3)Gal(b1-3)GlcNAc
# In short: as §1
# [30] = molecular target: Gal(b1-4)GlcNAc(b1-3)Gal(b1-4)Glc
# In short: as §1
# [31] = molecular target: Gal(b1-4)GlcNAc(b1-3)Gal(b1-4)GlcNAc
# In short: as §1
# [32] = molecular target: Gal(b1-4)GlcNAc(b1-3)Gal(b1-4)GlcNAc(b1-2)Man(a1-3)[Gal(b1-4)GlcNAc(b1-3)Gal(b1-4)GlcNAc(b1-2)Man(a1-6)]Man(b1-4)GlcNAc(b1-4)GlcNAc
# In short: as §1
# [33] = molecular target: Gal(b1-4)GlcNAc(b1-3)Gal(b1-4)GlcNAc(b1-2)Man(a1-3)[Gal(b1-4)GlcNAc(b1-3)Gal(b1-4)GlcNAc(b1-2)Man(a1-6)]Man(b1-4)GlcNAc(b1-4)[Fuc(a1-6)]GlcNAc
# In short: as §1
binder,measurement,setting,value
"Protein L(B1-B4) (Finegoldia magna), Q51912 (protein) KEETPETPETDSEEEVTIKANLIFANGSTQTAEFKGTFEKATSEAYAYADTLKKDNGEYTVDVADKGYTLNIKFAGKEKTPEEPKEEVTIKANLIYADGKTQTAEFKGTFEEATAEAYRYADALKKDNGEYTVDVADKGYTLNIKFAGKEKTPEEPKEEVTIKANLIYADGKTQTAEFKGTFEEATAEAYRYADLLAKENGKYTVDVADKGYTLNIKFAGKEKTPEEPKEEVTIKANLIYADGKTQTAEFKGTFAEATAEAYRYADLLAKENGKYTADLEDGGYTINIRFAG",glycan array binding signal (z-score),[1],1.59
same,glycan array binding signal (z-score),[2],0.254
same,glycan array binding signal (z-score),[3],-0.377
same,glycan array binding signal (z-score),[4],0.368
same,glycan array binding signal (z-score),[5],-0.032
same,glycan array binding signal (z-score),Gal(b1-4)Gal,0.033
same,glycan array binding signal (z-score),[6],-0.634
same,glycan array binding signal (z-score),[7],-0.985
same,glycan array binding signal (z-score),Gal(b1-4)Glc,-0.492
same,glycan array binding signal (z-score),Gal(b1-4)Glc6S,1.07
same,glycan array binding signal (z-score),Gal(b1-4)GlcNAc,-0.792
same,glycan array binding signal (z-score),[8],-0.851
same,glycan array binding signal (z-score),Gal(b1-4)GlcNAc(b1-2)Man,0.361
same,glycan array binding signal (z-score),[9],-0.416
same,glycan array binding signal (z-score),[10],-0.396
same,glycan array binding signal (z-score),[11],0.291
same,glycan array binding signal (z-score),[12],-0.33
same,glycan array binding signal (z-score),[13],-0.633
same,glycan array binding signal (z-score),[14],-1.08
same,glycan array binding signal (z-score),[15],-0.936
same,glycan array binding signal (z-score),[16],-0.017
same,glycan array binding signal (z-score),[17],-0.772
same,glycan array binding signal (z-score),[18],-0.232
same,glycan array binding signal (z-score),[19],-0.385
same,glycan array binding signal (z-score),[20],-1.05
same,glycan array binding signal (z-score),[21],-0.799
same,glycan array binding signal (z-score),[22],-0.821
same,glycan array binding signal (z-score),[23],0.468
same,glycan array binding signal (z-score),[24],0.436
same,glycan array binding signal (z-score),[25],2.92
same,glycan array binding signal (z-score),[26],-0.11
same,glycan array binding signal (z-score),[27],0.045
same,glycan array binding signal (z-score),[28],-0.508
same,glycan array binding signal (z-score),[29],-0.573
same,glycan array binding signal (z-score),[30],-0.694
same,glycan array binding signal (z-score),[31],-0.75
same,glycan array binding signal (z-score),[32],2.2
same,glycan array binding signal (z-score),[33],0.486

# Exported with tabs: entries from further up.
binder	measurement	setting	value
Protein L(B1-B4) (Finegoldia magna), Q51912 (protein) KEETPETPETDSEEEVTIKANLIFANGSTQTAEFKGTFEKATSEAYAYADTLKKDNGEYTVDVADKGYTLNIKFAGKEKTPEEPKEEVTIKANLIYADGKTQTAEFKGTFEEATAEAYRYADALKKDNGEYTVDVADKGYTLNIKFAGKEKTPEEPKEEVTIKANLIYADGKTQTAEFKGTFEEATAEAYRYADLLAKENGKYTVDVADKGYTLNIKFAGKEKTPEEPKEEVTIKANLIYADGKTQTAEFKGTFAEATAEAYRYADLLAKENGKYTADLEDGGYTINIRFAG	glycan array binding signal (z-score)	[28]	-0.508
same	glycan array binding signal (z-score)	[29]	-0.573
same	glycan array binding signal (z-score)	[30]	-0.694
